The subject of data set [1] is Pol gamma holoenzyme (Pol gammaA + Pol gammaB deltaI4) del4-4,Pol,gammaB:
As to the kind of experiment: EMSA. The following applies: 0.5 uM Pol gamma, 0.75 uM DNA. For orientation: A gel shift assay detects complexes by their altered migration in electrophoresis.

Data set [2] relates to PARP1 + Pol gamma holoenzyme (Pol gammaA + Pol gammaB deltaI4) del4-4,Pol,gammaB:
In words: EMSA + Western blot.

For at least one entry, the source does not settle the construct or the ends of the probe. For part of these data: A weaker result is weaker than the reference pair of the same experiment.

Turning to “CTTTTCTGGTGAAAAGCTCGTCGGCAGCGCTTGAGCAGCGGCAGCTGGTGCTGCCGCTGCTCAAGCGCTGCCGAC [d3ntgap (75-nt dumbbell with 3-nt gap)]”, the binding result is given as “binds” in data set [1]; “binds” in data set [2] (2 mM NAD+ plus Olaparib, dissociation prevented); “binds more weakly” in data set [2] (2 mM NAD+, supershift dissociates to the Pol gamma-DNA complex).

The values are drawn from doi:10.1101/2020.07.13.200055.
